These results are taken from PubChem BioAssay AID330 (DTP/NCI, 2004).

The list is a part of this screen's results and no random one: it gathers tests that were run many times, whatever their T/C, doses with no T/C, and many T/C values between a quarter and a half above the control. Other doses and runs of a compound stand elsewhere. T/C gives the treated animals as a percentage of the vehicle group. Some entries give survivors of the animals treated and no T/C: the source holds a T/C of zero for them, seemingly a mark for toxic or unscored doses. Some doses without a T/C left all or most animals alive at the check, yet need not have been tolerated: survival well below the control is almost never listed, so the zero probably covers shortened survival too. Counts of survivors are from the toxicity check (mostly the fifth day) where no day follows; animals may have died later. Schedules are NCI's codes, read here as Q, the interval in days (D) or hours (H), X, the number of doses. Some entries hold several experiments; the values are given in rising order. Where survival is the endpoint, this PubChem deposit counts one and a half times the control or more as active, and values a quarter to a half above the control carry no call in these data; other NCI protocols may use other cut-offs. Some T/C values carry the count of animals alive at the toxicity check (mostly the fifth day); where none is given, no animal had died by that day. Signs of the kind (2×) stand for listed records that agree.

For the assay, the system named is P388 leukemia ip, CD2F1 mice, survival T/C. Briefly: NCI In Vivo Anticancer Drug Screen. Data for tumor model P388 Leukemia (intraperitoneal) in CD2F1 (CDF1) mice. The settings on record: T/C endpoint: median survival time, higher T/C = longer survival.
Setting [1] is: dose: 50.0 mg/kg/injection, schedule: Q01DX009 (ip), vehicle: saline.
The mark [2] stands for this setting: dose: 12.5 mg/kg/injection, schedule: Q01DX009 (ip), vehicle: saline.
Where [3] appears, read: dose: 6.25 mg/kg/injection, schedule: Q01DX009 (ip), vehicle: saline.
Where [4] appears, read: dose: 100.0 mg/kg/injection, schedule: Q01DX009 (ip), vehicle: saline.
Where [5] appears, read: dose: 200.0 mg/kg/injection, schedule: Q01DX009 (ip), vehicle: saline.
The mark [6] stands for this setting: dose: 12.5 mg/kg/injection, schedule: Q01DX009 (ip), vehicle: water.
Where [7] appears, read: dose: 25.0 mg/kg/injection, schedule: Q01DX009 (ip), vehicle: water.
[8] abbreviates: dose: 100.0 mg/kg/injection, schedule: Q01DX009 (ip), vehicle: water.
Where [9] appears, read: dose: 100.0 mg/kg/injection, schedule: Q01DX005 (ip), vehicle: Klucel (hydroxypropylcellulose) (HPC).
The mark [10] stands for this setting: dose: 200.0 mg/kg/injection, schedule: Q01DX005 (ip), vehicle: Klucel (hydroxypropylcellulose) (HPC).
The mark [11] stands for this setting: dose: 100.0 mg/kg/injection, schedule: Q01DX005 (ip), vehicle: saline with Tween-80.
[12] abbreviates: dose: 200.0 mg/kg/injection, schedule: Q01DX005 (ip), vehicle: saline with Tween-80.
Setting [13] is: dose: 5.0 mg/kg/injection, schedule: Q01DX005 (ip), vehicle: Klucel (hydroxypropylcellulose) (HPC).
[14] abbreviates: dose: 400.0 mg/kg/injection, schedule: Q01DX001 (ip), vehicle: saline with Tween-80.
Where [15] appears, read: dose: 25.0 mg/kg/injection, schedule: Q01DX009 (ip), vehicle: saline with Tween-80.
Where [16] appears, read: dose: 100.0 mg/kg/injection, schedule: Q01DX009 (ip), vehicle: saline with Tween-80.
Setting [17] is: dose: 200.0 mg/kg/injection, schedule: Q01DX009 (ip), vehicle: saline with Tween-80.
Where [18] appears, read: dose: 25.0 mg/kg/injection, schedule: Q01DX009 (ip), vehicle: saline.

Take `COC(=O)C(=O)c1c(C(=O)OC)nc2[nH]n(-c3ccccc3)c(=O)c2c1-c1cccc2ccccc12`: the survivor count by setting is: (dose: 60.0 mg/kg/injection, schedule: Q01DX005 (ip), vehicle: saline with Tween-80) 6 of 6; (dose: 120.0 mg/kg/injection, schedule: Q01DX005 (ip), vehicle: saline with Tween-80) 6 of 6; (dose: 240.0 mg/kg/injection, schedule: Q01DX005 (ip), vehicle: saline with Tween-80) 3 of 6.
As for `CN(C)/C(N)=N\c1ncccn1`, under setting [1], the survivor count is given as 6 of 6.
As to `CCC(C)P(=O)(N1CC1)N1CC1` (centres undefined), the T/C was 127 % of control under setting [2] and 140 % of control (dose: 12.5 mg/kg/injection, schedule: Q04DX003 (ip), vehicle: saline).
Take `CCCCCCCCCCCCCCCCCC[N+]1(CC)CCOCC1`: under setting [3], the T/C was 87 [5 of 6 alive], 89, 138 % of control. The survivor count is 6 of 6 under setting [3]; 6 of 6 under setting [2]; 1 of 6 under setting [1]; 0 of 6 under setting [4]; 0 of 6 under setting [5].
As for `O=NNc1ccc2cccnc2n1`, the T/C is 126 and 133 % of control under setting [6]; 141 % of control [5 of 6 alive] under setting [7]. In addition, under setting [8], the survivor count is reported as 6 of 6.
As for `CN(C)c1ncnc2nc(Cl)[nH]c12`, the survivor count reads like this: (dose: 50.0 mg/kg/injection, schedule: Q01DX005 (ip), vehicle: Klucel (hydroxypropylcellulose) (HPC)) 3 of 5; under setting [9], 1 of 5; under setting [10], 0 of 5.
On to `Cc1cccc(/C=N/Nc2cc(C)c3ccccc3n2)n1`, for which the survivor count under setting [11] is given as 2 of 6 and the survivor count under setting [12] was 3 of 6.
On to `CCCOC(=O)NC(C)C(=O)NC(CCC(=O)NC(CCCC(N)C(=O)O)C(=O)NC(C)C(=O)O)C(=O)O` (centres undefined), for which the survivor count under setting [9] was 1 of 5 and the survivor count under setting [10] is 0 of 5.
On to `COC1=C(C)C(=O)C2=C(C1=O)C1C3CC4=C(C(=O)C(OC)=C(C)C4=O)C(CNC(=O)C(C)O)N3C(C#N)C(C2)N1C` (centres undefined), for which the T/C is 127 and 137 % of control (dose: 0.63 mg/kg/injection, schedule: Q01DX005 (ip), vehicle: Klucel (hydroxypropylcellulose) (HPC)); 140 [5 of 6 alive] and 144 % of control (dose: 1.25 mg/kg/injection, schedule: Q01DX005 (ip), vehicle: Klucel (hydroxypropylcellulose) (HPC)); 142 % of control [5 of 6 alive] under setting [13]. The survivor count under setting [13] is 2 of 6.
`O=C(O)c1ccc2c3c(n[se]c13)-c1ccccc1C2=O`: under setting [10], the survivor count is 0 of 5.
Consider `CC1(c2cc(Cl)c(Cl)cc2Cl)NC(=O)NC1=O` (centres undefined), for which the survivor count under setting [14] is 0 of 6.
As for `c1ccc2c(c1)ccc1c(NCCCCNc3c4ccccc4nc4c3ccc3ccccc34)c3ccccc3nc12`, the survivor count is 2 of 6 under setting [15]; 0 of 6 (dose: 50.0 mg/kg/injection, schedule: Q01DX009 (ip), vehicle: saline with Tween-80); 0 of 6 under setting [16]; 0 of 6 under setting [17].
Consider `CCCCCCCCCCCCCCCCNCCCS(=O)(=O)O`, for which the survivor count is listed as 6 of 6 under setting [15], 5 of 6 under setting [4] and 0 of 6 under setting [5]. Moreover, under setting [1], the T/C was 126 % of control.
Regarding `Cc1cc(OCCCC[N+](C)(C)Cc2ccc(Br)o2)c(C(C)C)cc1Cl`, the survivor count under setting [2] is 3 of 6 and the survivor count under setting [18] was 0 of 6.
Consider `CN1C(=O)CC(=O)N(c2ccccc2)c2cc(Cl)ccc21`, for which the survivor count under setting [10] is 0 of 6.
As for `CN(C)CC(CN1CCCC1)C(=O)c1ccccc1` (centres undefined), the T/C under setting [2] is 127 and 131 % of control. In addition, the survivor count under setting [4] is on record as 0 of 6 and the survivor count under setting [5] was 0 of 6.
Consider `CSc1nccnn1`, for which the survivor count was 2 of 6 under setting [1], 0 of 6 under setting [4] and 0 of 6 under setting [5].
With `Cc1cnc2cc(-c3ccccc3)[nH]c2n1`, the survivor count by setting is: (dose: 60.0 mg/kg/injection, schedule: Q01DX005 (ip), vehicle: Klucel (hydroxypropylcellulose) (HPC)) 6 of 6; (dose: 120.0 mg/kg/injection, schedule: Q01DX005 (ip), vehicle: Klucel (hydroxypropylcellulose) (HPC)) 6 of 6; (dose: 240.0 mg/kg/injection, schedule: Q01DX005 (ip), vehicle: Klucel (hydroxypropylcellulose) (HPC)) 6 of 6.
Consider `Cc1cc2nc3ccc(N)cc3oc-2cc1=[N+](C)C`, for which the T/C runs as follows: under setting [2], 128 and 134 % of control; under setting [18], 128 and 139 % of control; under setting [1], 137 % of control.
As to `c1ccc(-c2csc3nc(N4CCCCC4)cn23)cc1`, the survivor count (dose: 400.0 mg/kg/injection, schedule: Q04DX003 (ip), vehicle: saline + Tween-80 + alcohol) was 3 of 6.
On to `CCCCOC(=O)/C=C(\I)C(=O)OCCCC`, for which the survivor count is, setting by setting: under setting [16], 3 of 6; under setting [17], 3 of 6.
As to `CCC1(C2OC(C3OC(O)(CO)C(C)CC3C)CC2C)CCC(C2(C)CCC3(CC(O)C(C)C(C(C)C(OC)C(C)C(=O)O)O3)O2)O1` (centres undefined), the survivor count (dose: 12.5 mg/kg/injection, schedule: Q01DX005 (ip), vehicle: saline with Tween-80) is 2 of 5 and 3 of 6; the survivor count (dose: 25.0 mg/kg/injection, schedule: Q01DX005 (ip), vehicle: saline with Tween-80) was 0 of 5 and 1 of 6; the survivor count (dose: 50.0 mg/kg/injection, schedule: Q01DX005 (ip), vehicle: saline with Tween-80) was 0 of 5; the survivor count under setting [11] was 0 of 5; the survivor count under setting [12] was 0 of 5.
For `CN(Cc1cnc2nc(N[Si](C)(C)C)nc(N[Si](C)(C)C)c2n1)c1ccc(C(=O)NC(CCC(=O)O[Si](C)(C)C)C(=O)O[Si](C)(C)C)cc1` (centres undefined), the T/C (dose: 5.0 mg/kg/injection, schedule: Q01DX009 (ip), vehicle: saline) was 134 % of control. Moreover, the survivor count runs as follows: (dose: 10.0 mg/kg/injection, schedule: Q01DX009 (ip), vehicle: saline) 3 of 6; (dose: 20.0 mg/kg/injection, schedule: Q01DX009 (ip), vehicle: saline) 3 of 6; (dose: 120.0 mg/kg/injection, schedule: Q04DX003 (ip), vehicle: saline) 5 of 6.
As to `c1ccc(-c2csc(=[N+]3CCCCC3)s2)cc1`, the T/C runs as follows: under setting [6], 121 (2×), 124 [5 of 6 alive], 133 % of control [5 of 6 alive]; under setting [7], 128 [5 of 6 alive], 133, 135, 136 % of control. Moreover, the survivor count was 0 of 6 (dose: 50.0 mg/kg/injection, schedule: Q01DX009 (ip), vehicle: water); 0 of 6 under setting [8]; 0 of 6 (dose: 200.0 mg/kg/injection, schedule: Q01DX009 (ip), vehicle: water); 0 of 6 (dose: 400.0 mg/kg/injection, schedule: Q01DX009 (ip), vehicle: water).
For the compound `CCSC(C#N)C(C)=O` (centres undefined), the survivor count is listed as 6 of 6 under setting [16] and 0 of 6 under setting [17].
On to `CCN(CC)c1ccc2nc3c4ccccc4c(=NC(=O)c4ccccc4-c4c5ccc(N(CC)CC)cc5[o+]c5cc(N(CC)CC)ccc45)cc-3oc2c1`, for which, under setting [5], the survivor count is 5 of 6.
For `C/C(=N\N=c1\sc2ccccc2n1CC(=O)O)c1ccc([N+](=O)[O-])cc1`, under setting [14], the survivor count is given as 0 of 6.
Regarding `O=c1c2nccnc2nc2n1CCCS2`, the survivor count (dose: 400.0 mg/kg/injection, schedule: Q01DX009 (ip), vehicle: Klucel (hydroxypropylcellulose) (HPC)) was 1 of 6.
